Experimental data as given in article PMC9788671.
Results are given in words; binding and its absence hold for the method and conditions named. In cells and extracts the contact can be indirect. These calls come from enrichment with a bait or labelling near it, and not all partners need be listed.

Sequences of proteins named here, by UniProt entry; tags and fusion partners are left off.
UniProt Q9NZV8: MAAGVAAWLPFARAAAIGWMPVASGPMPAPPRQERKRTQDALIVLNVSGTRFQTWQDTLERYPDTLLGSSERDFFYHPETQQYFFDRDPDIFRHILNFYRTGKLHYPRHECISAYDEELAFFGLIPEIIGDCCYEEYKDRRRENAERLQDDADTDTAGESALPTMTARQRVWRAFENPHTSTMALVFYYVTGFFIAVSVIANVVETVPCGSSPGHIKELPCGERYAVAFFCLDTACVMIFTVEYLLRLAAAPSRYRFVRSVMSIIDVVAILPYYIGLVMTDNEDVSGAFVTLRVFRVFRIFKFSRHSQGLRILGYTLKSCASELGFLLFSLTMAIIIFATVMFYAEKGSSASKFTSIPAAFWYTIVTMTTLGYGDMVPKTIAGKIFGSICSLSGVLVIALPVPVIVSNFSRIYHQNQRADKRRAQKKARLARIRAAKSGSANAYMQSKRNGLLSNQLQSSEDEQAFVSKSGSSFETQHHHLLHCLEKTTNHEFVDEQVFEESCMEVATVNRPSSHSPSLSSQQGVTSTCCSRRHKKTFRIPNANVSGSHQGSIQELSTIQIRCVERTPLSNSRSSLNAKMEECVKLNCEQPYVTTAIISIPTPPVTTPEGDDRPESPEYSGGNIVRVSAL

Assays:
[1] = target: TAP-Kv4.2 (human) (UniProt Q9NZV8); experiment: affinity purification with mass spectrometry; TAP-Kv4.2 expressed by lentivirus in rat hippocampal neurons, harvested at DIV14; strong lysis buffer (1% Triton X-100, 0.5% deoxycholate in PBS, pH 7.4); streptavidin resin, then calmodulin resin; gel cut into high and low molecular weight fragments; no MS of the control sample
[2] = target: TAP-Kv4.2 (human) (UniProt Q9NZV8); experiment: affinity purification with mass spectrometry; TAP-Kv4.2 expressed by lentivirus in rat hippocampal neurons, harvested at DIV14; weak lysis buffer of the kit (0.1% NP-40); streptavidin resin, then calmodulin resin; gel cut into high and low molecular weight fragments; no MS of the control sample

Row | Binder | binding [1] | binding [2]
1 | Map6 (protein, UniProt Q63560 1-952) MAWPCITRACCIARFWNQLDKADIAVPLVFTKYSEATEHPGAPPQPPAPPQPGLAPPSRAVAIETQPAQGESDAVARATGPAPGPSGDRETAAAPGRSGLGLGAASGSTSGSGPADSVMRQDYRAWKVQRPEPSCRPRSEYQPSDAPFERETQYQKDFRAWPLPRRGDHPWIPKPVQIPATSQPSPPVLGMPKRRPQSQERGPIQLSADARDPEGAGGAGVPAAGKASGADQRDTRRKAGPAWMVTRTEGHEEKPLPPAQSQTQEGGPAAGKASGADQRDTRRKAGPAWMVTRTEGHEEKPLPPAQSQTQEGGPAAGKASGADQRDTRRKAGPAWMVTRTEGHEETPLPPAQSQTQEGGPAAGKASGADQRDTRRKAGPAWMVTRTEGHEETPLPPAQSQTQEGGPAAGKASGADERDTRRKAGPAWMVRRSEGHEQTTAAHAQGTGPEGGKGRAVADALNRQIREEVTSTVSSSYRNEFRAWTDIKPVKPIKAKPQYKPPDDKMVHETSYSAQFKGEASKPTTADNKVVDRRRIRSLYSEPFKESPKVEKPSVQSSKPKKTSTSQKPLRKAKDKQVASGQAAKKKTTESPSATKPDDKEQSKEMNNKLAEAKESRVKPTSDKNQGPVAKEPHKDQGPVAPGLPKGQGPAVQEPLKDQGPMVPGLPKDQAPVVPGSLKGQSPTAPGPPKDQGAVLLGPMKDLGPVAPASVKDQDHMASELLKNKDSVPLAPAKAQSPLLPEPLKNQSPVVPARAKDQSFPAPAPTPLKDPGPVIPEPEKDGAPMVPERRKDQNASIMASLKNEAPVASESVKNQGLGGPEPAKDTGTDLKGHGSVFVAPVKSQGPVVPEPTKGQDPIIPALAKDQGPILPEPPKNQGPPVVLGPIKNQDPVIPVPLKGQDPVVPAPTKDPGPTAPDPLKSQGPRGPQLPTVSPSPPVMIPTVPHAEYIEGSP | binds | binds
2 | Nefm (protein, UniProt P12839 1-846) MSYTLDSLGNPSAYRRVPTETRSSFSRVSGSPSSGFRSQSWSRGSPSTVSSSYKRSALAPRLAYSSAMLSSAESSLDFSQSSSLLNGGSGGDYKLSRSNEKEQLQGLNDRFAGYIEKVHYLEQQNKEIEAEIHALRQKQASHAQLGDAYDQEIRELRATLEMVNHEKAQVQLDSDHLEEDIHRLKERFEEEARLRDDTEAAIRAVRKDIEESSMVKVELDKKVQSLQDEVAFLRSNHEEEVADLLAQIQASHITVERKDYLKTDISTALKEIRSQLECHSDQNMHQAEEWFKCRYAKLTEAAEQNKEAIRSAKEEIAEYRRQLQSKSIELESVRGTKESLERQLSDIEERHNHDLSSYQDTIQQLENELRGTKWEMARHLREYQDLLNVKMALDIEIAAYRKLLEGEETRFSTFSGSITGPLYTHRQPSVTISSKIQKTKVEAPKLKVQHKFVEEIIEETKVEDEKSEMEDALTVIAEELAASAKEEKEEAEEKEEEPEVEKSPVKSPEAKEEEEGEKEEEEEGQEEEEEEDEGVKSDQAEEGGSEKEGSSEKDEGEQEEEGETEAEGEGEEAEAKEEKKTEGKVEEMAIKEEIKVEKPEKAKSPVPKSPVEEVKPKPEAKAGKDEQKEEEKVEEKKEVAKESPKEEKVEKKEEKPKDVPDKKKAESPVKEKAVEEMITITKSVKVSLEKDTKEEKPQQQEKVKEKAEEEGGSEEEVGDKSPQESKKEDIAINGEVEGKEEEEQETQEKGSGQEEEKGVVTNGLDVSPAEEKKGEDRSDDKVVVTKKVEKITSEGGDGATKYITKSVTVTQKVEEHEETFEEKLVSTKKVEKVTSHAIVKEVTQGD | binds | binds
3 | Lrrc7 (protein, UniProt P70587 1-1490) MTTKRKLIGRLVPCRCFRGEEEIISVLDYSHCSLQQVPKEVFNFERTLEELYLDANQIEELPKQLFNCQALRKLSIPDNDLSSLPTSIASLVNLKELDISKNGVQEFPENIKCCKCLTIIEASVNPISKLPDGFTQLLNLTQLYLNDAFLEFLPANFGRLVKLRILELRENHLKTLPKSMHKLAQLERLDLGNNEFSELPEVLDQIQNLRELWMDNNALQVLPGSIGKLKMLVYLDMSKNRIETVDMDISGCEALEDLLLSSNMLQQLPDSIGLLKKLTTLKVDDNQLTMLPNTIGNLSLLEEFDCSCNELESLPPTIGYLHSLRTLAVDENFLPELPREIGSCKNVTVMSLRSNKLEFLPEEIGQMQRLRVLNLSDNRLKNLPFSFTKLKELAALWLSDNQSKALIPLQTEAHPETKQRVLTNYMFPQQPRGDEDFQSDSDSFNPTLWEEQRQQRMTVAFEFEDKKEDDESAGKVKALSCQAPWDRGQRGITLQPARLSGDCCTPWARCDQQIQDMPVPQSDPQLAWGCISGLQQERSMCAPLPVAAQSTTLPSLSGRQVEINLKRYPTPYPEDLKNMVKSVQNLVGKPSHGVRVENANPTANTEQTVKEKFEHKWPVAPKEITVEDSFVHPANEMRIGELHPSLAETPLYPPKLVLLGKDKKESTDESEVDKTHCLNNSVSSGTYSDYSPSQASSASSNTRVKVGSLQPTTKDAVHNSLWGNRIAPPFPQPLDAKPLLTQREAVPPGNLPQRPDRLPMSDAFPDNWTDGSHYDNTGFVSEEATGENANNNPLLSSKARSVPAHGRRPLIRQERIVGVPLELEQSTHRHTPETEVPPSNPWQNWTRTPSPFEDRTAFPSKLETTPTTSPLPERKDHMKEPTETPGPFSPGVPWEYHDPTPNRSLGNVFSQIHCRPDSSKGVIAISKSTERLSPLMKDIKSNKFKKSQSIDEIDVGTYKVYNIPLENYASGSDHLGSHERPDKFLGPEHGMSSMSRSQSVPMLDDEMLMYGSSKGPPQQKASMTKKVYQFDQSFNPQGAVEVKAEKRIPPPFAHNSEYVQQPGKNIAKDLVSPRAYRGYPPMEQMFSFSQPSVNEDAMVNAQFASQGPRAGFLRRADSLASSTEMAMFRRVSEPHELPPGDRYGRAAYRGGLEGQSSVSMTDPQFLKRNGRYEDEHPSYQEVKAQAGSFPAKNLTQRRPLSARSYSTESYGASQTRPVSARPTMAALLEKIPSDYNLGNYGDKTSDNSDIKTRPTPVKGEESCGKMPADWRQQLLRHIEARRLDRTPSQQSNILDNGQEDVSPSGQWNPYPLGRRDVPPDTITKKAGSHIQTLMGSQSLQHRSREQQPYEGNINKVTIQQFQSPLPIQIPSSQATRGPQPGRCLIQTKGQRSMDGYPEQFCVRIEKNPGLGFSISGGISGQGNPFKPSDKGIFVTRVQPDGPASNLLQPGDKILQANGHSFVHMEHEKAVLLLKSFQNTVDLVIQRELTV | binds | binds

The remaining lines, values ahead:

Row | binding [1] | binding [2] | Binder
4 | binds | binds | Pfkm (protein, UniProt P47858 1-780) MTHEEHHEAKTLGIGKAIAVLTSGGDAQGMNATVRAVVRVGIFTGLRVFFVHEGYQGLVDGGEHIREATWESVSMMLQLGGTVIGSARCKDFREREGRLRAAHNLVKRGITNLCVIGGDGSLTGADTFRSEWSDLLNDLQKDGKITAEERTKSSYLNIVFLVGSIDNDFCGTDMTIGTDSALHRIVEIVDAITTTAQSHQRTFVLEVMGRHCGYLALVTSLSCGADWVFIPECPPDDDWEEHLCRRLSETRTRGSRLNIIIVAEGAIDKNGKPITSEDIKNLVVKRLGYDTRVTVLGHVQRGGTPSAFDRILGSRMGVEAVMALLEGTPDTPACVVSLSGNTAVRLPLMECVQVTKDVTKAMDEKRFDEAIKLRGRSFMNNWEVYKLLAHVRPPVSKGGLHTVAVMNVGAPAAGMNAAVRSTVRIGLIQGNRVLVVHDGFEGLAKGQIEEAGWSYVGGWTGQGGSKLGTKRTLPKKNLEQISANITKYNIQGLVIIGGFEAYTGGLELMEGRKQFDELCIPFVVIPATVSNNVPGSDFSIGADTALNTICTTCDRIKQSAAGTKRRVFIIETMGGYCGYLATMAGLAAGADAAYIFEEPFTIRDLQVNVEHLVQKMKTTVKRGLVLRNEKCNENYTTDFIFNLYSEEGKGIFDSRKNVLGHMQQGGNPTPFDRNFATKMGAKATNWMSGKIKESYRNGRIFANTPDSGCVLGMRKRALVFQPVTELKDQTDFEHRIPKEQWWLKLRPILKILAKYEIDLDTSDHAHLEHISRKRSGEAAV
5 | binds | binds | Srcin1 (protein, UniProt Q9QXY2 1-1197) MQPWQCLRRFALAWWERTAEGRARSPREEVGPRDPGGRGEPDPERSSPPMLSADDAEYPREYRTLGGGGSGGSGGRRFSNVGLVHTSERRHTVIAAQSLEALSGLQKADADRKRDAFMDHLKSKYPQHALALRGQQDRMREQQPNYWSFKTRSSRHTQGAQPGLADQAAKLSYASAESLETMSEAELPLGFSRMNRFRQSLPLSRSASQTKLRSPGVLFLQFGEETRRVHITHEVSSLDTLHALIAHMFPQKLTMGMLKSPNTAILIKDEARNVFYELEDVRDIQDRSIIKIYRKEPLYAAFPGSHLTNGDLRREMVYASRESSPTRRLNNLSPASHLASSSPPPGLPSGLPSGLPSGSPSRSRLSYAGGRPPSYAGSPVHHAAERLGGAPTSQGVSPSPSAILERRDVKPDEDLAGKAGGMVLVKGEGLYADPYGLLHEGRLSLAAAAGDPFAYPGAGGLYKRGSVRSLSTYSAAALQSDLEDSLYKAGAGGPLYGDGYGFRLPPSSPQKLADVSAPSGGPPPPHSPYSGPPSRGSPVRQSFRKDSGSSSVFAESPGGKARSTGASTAGAPPSELFPGPGERSLVGFGPPVPAKDTETRERMEAMEKQIASLTGLVQSALLRGSEPETPSEKIEGSNGAATPSAPVCGSGSRSSGATPVSGPPPPAVSSTPAGQPTAVSRLQMQMHLRGLQNSASDLRGQLQQLRKLQLQNQESVRALLKRTEAELSMRVSEAARRQEDPLQRQRTLVEEERLRYLNDEELITQQLNDLEKSVEKIQRDVAHNHRLVPGPELEEKALVLKQLGETLTELKAHFPGLQSKMRVVLRVEVEAVKFLKEEPQRLDGLLKRCRVVTDTLAQIRRQVDEGVWPPPNNLLNQSPKKVAAETDFSKGLDFEIPPPSPPLNLHELSGPAEGTPLTPKSGNPTKGLDAPSKRNMDKAVSVEAAERDWEEKRAALTQYSAKDINRLLEETQAELLKAIPDLDCASKTHPGPTPTPDHKPPKAPHGQKAAPRTEPSGRRGSDELTVPRYRTEKPSKSPPPPPPRRSFPSSHGLTTTRTGEVVVTSKKDSVFIKKAESEELEIQKPQVKLRRAVSEVVRPASTPPIMASAIKDEDDEERIIAELESGGGSVPPMKVVTPGASRLKAAQGPAGSPDKGKHGKQRTEYMRIQAQQQVRVGYQAPRPLEGCTPRLCYMPLS
6 | binds | binds | Pcca (protein, UniProt P14882 62-737) SVEYEPKEKTFDKILIANRGEIACRVIKTCRKMGIRTVAIHSDVDASSVHVKMADEAVCVGPAPTSKSYLNMDAIMEAIKKTGAQAVHPGYGFLSENKEFAKCLAAEDVTFIGPDTHAIQAMGDKIESKLLAKRAKVNTIPGFDGVLKDADEAVRIAREIGYPVMIKASAGGGGKGMRIPWDDEETRDGFRFSSQEAASSFGDDRLLIEKFIDNPRHIEIQVLGDKHGNALWLNERECSIQRRNQKVVEEAPSIFLDPETRRAMGEQAVAWPKAVKYSSAGTVEFLVDSQKNFYFLEMNTRLQVEHPVTECITGLDLVQEMILVAKGYPLRHKQEDIPISGWAVECRVYAEDPYKSFGLPSIGRLSQYQEPIHLPGVRVDSGIQPGSDISIYHDPMISKLVTYGSDRAEALKRMEDALDSYVIRGVTHNIPLLREVIINTRFVKGDISTKFLSDVYPDGFKGHMLTPSERDQLLAIASSLFVASQLRAQRFQEHSRVPVIRPDVAKWELSVKLHDEDHTVVASNNGPTFNVEVDGSKLNVTSTWNLASPLLSVNVDGTQRTVQCLSPDAGGNMSIQFLGTVYKVHILTKLAAELNKFMLEKVPKDTSSVLRSPKPGVVVAVSVKPGDMVAEGQEICVIEAMKMQNSMTAGKMGKVKLVHCKAGDTVGEGDLLVELE
